Patent US20070128187A1 (GENOME THERAPEUTICS, published 2007)
No constants are given. Whether binding was seen depends on the method and setting. Binding can be weak; no strength is given.

Sequences of proteins named here, by UniProt entry; tags and fusion partners are left off. A change or cut given only in a name is not applied to a line headed by its entry.
UniProt Q04721: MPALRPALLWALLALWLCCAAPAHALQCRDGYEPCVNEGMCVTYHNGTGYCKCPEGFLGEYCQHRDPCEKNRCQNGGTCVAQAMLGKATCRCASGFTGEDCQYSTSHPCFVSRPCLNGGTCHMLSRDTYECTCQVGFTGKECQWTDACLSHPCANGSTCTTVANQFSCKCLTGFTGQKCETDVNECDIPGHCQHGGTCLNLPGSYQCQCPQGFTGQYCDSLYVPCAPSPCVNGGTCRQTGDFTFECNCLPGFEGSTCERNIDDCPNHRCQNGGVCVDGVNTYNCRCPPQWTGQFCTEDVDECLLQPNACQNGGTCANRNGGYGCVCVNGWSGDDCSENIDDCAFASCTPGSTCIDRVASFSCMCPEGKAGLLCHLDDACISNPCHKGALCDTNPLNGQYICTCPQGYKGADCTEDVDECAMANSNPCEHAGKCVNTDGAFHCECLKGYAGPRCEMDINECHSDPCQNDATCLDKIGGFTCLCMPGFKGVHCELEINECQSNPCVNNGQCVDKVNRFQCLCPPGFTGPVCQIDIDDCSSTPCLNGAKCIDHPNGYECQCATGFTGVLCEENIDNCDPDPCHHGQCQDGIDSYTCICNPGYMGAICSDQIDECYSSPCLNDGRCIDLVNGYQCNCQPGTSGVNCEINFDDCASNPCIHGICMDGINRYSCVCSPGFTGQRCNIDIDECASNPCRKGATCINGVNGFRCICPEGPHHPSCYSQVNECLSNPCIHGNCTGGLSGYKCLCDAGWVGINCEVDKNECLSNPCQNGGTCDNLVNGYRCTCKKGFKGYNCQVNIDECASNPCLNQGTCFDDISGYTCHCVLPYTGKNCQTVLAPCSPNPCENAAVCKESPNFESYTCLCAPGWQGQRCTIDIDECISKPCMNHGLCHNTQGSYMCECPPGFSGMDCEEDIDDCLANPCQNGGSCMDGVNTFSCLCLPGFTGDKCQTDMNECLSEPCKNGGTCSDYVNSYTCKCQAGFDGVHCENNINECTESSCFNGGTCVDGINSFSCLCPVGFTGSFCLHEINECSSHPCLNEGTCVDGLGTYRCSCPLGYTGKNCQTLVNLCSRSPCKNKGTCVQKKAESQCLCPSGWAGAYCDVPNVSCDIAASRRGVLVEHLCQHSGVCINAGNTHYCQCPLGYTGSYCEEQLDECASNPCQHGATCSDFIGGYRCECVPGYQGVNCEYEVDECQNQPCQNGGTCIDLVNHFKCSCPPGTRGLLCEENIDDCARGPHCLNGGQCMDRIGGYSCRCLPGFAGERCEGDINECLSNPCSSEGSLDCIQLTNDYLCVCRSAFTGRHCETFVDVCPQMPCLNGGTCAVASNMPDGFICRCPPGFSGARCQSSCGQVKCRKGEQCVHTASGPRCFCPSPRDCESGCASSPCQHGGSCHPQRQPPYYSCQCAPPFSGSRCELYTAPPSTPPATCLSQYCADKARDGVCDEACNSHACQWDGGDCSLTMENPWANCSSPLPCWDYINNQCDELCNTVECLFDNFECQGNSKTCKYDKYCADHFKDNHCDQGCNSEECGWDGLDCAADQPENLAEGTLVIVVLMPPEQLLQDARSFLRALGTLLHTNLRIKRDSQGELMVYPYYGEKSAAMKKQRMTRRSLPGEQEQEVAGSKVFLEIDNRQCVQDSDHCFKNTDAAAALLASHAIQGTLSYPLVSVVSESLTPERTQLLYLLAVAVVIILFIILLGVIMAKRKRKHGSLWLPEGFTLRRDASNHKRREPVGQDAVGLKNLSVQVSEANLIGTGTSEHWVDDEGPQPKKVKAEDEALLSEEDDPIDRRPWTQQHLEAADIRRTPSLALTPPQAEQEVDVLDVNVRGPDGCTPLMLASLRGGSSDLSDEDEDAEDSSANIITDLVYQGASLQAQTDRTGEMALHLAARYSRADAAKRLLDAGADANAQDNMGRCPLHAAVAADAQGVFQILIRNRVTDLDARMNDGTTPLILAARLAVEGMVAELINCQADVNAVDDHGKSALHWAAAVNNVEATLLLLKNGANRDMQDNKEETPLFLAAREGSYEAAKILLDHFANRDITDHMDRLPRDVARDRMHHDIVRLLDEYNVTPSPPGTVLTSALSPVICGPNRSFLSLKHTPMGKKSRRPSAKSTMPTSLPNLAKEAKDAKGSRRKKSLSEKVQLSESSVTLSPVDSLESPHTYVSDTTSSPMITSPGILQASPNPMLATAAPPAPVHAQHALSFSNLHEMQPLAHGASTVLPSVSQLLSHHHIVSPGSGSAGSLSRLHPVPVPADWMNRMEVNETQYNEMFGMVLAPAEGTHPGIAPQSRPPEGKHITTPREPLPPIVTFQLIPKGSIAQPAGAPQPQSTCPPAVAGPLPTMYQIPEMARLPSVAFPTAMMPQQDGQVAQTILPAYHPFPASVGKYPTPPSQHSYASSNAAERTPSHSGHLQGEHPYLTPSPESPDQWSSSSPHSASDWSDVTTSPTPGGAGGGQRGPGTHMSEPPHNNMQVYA
UniProt Q9H2X0: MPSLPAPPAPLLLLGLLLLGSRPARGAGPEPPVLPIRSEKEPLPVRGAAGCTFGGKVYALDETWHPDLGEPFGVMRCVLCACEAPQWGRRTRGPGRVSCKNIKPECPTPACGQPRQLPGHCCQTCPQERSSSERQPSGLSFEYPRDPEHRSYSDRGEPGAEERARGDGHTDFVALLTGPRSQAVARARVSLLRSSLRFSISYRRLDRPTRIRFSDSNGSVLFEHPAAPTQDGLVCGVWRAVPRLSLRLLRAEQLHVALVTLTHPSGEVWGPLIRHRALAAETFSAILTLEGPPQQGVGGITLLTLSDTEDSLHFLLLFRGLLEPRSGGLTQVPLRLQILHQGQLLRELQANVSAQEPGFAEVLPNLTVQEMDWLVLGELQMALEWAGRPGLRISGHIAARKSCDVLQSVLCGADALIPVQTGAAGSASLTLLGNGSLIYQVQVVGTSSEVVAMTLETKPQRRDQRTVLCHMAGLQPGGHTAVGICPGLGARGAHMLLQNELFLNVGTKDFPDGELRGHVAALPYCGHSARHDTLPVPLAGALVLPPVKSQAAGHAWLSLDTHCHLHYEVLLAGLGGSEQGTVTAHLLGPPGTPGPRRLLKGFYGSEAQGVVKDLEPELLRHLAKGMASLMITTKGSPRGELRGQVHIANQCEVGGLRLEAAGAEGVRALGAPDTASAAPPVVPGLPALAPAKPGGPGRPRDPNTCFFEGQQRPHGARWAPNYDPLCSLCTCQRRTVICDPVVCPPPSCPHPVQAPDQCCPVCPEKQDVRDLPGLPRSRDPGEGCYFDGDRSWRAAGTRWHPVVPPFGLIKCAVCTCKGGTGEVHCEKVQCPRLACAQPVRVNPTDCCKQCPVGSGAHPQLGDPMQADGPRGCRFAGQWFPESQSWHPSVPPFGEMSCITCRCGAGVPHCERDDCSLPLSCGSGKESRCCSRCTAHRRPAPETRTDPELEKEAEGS

Biological target: T1, Dkk-1 bait sequence (yeast two hybrid) (human) (UniProt O94907)
T1 sequence: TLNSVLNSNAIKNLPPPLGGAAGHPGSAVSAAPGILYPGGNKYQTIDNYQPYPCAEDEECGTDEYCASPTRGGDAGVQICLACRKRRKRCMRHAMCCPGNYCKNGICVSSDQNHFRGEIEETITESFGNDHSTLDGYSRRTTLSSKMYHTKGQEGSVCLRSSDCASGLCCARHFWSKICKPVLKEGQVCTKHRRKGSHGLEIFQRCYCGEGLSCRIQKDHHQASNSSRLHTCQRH
Test: Y2H screen with the Dkk-1 bait (Hela and fetal brain libraries)

For “Notch-2 (from UniProt Q04721) (receptor)”, the binding was “binds”.
In the case of chordin (from UniProt Q9H2X0), the binding is reported as “binds”.
